Reference: patent US10525115B2 (Immatics Biotechnologies GmbH, priority 2014, dated 2020)

Test system: primary AML samples
Assay: HLA class I ligandome analysis (W6/32 immunoaffinity purification, LC-MS/MS) of primary AML samples
Design: species or system human
Conditions: for Number of positive AMLs: AML patients (n=15); for rep. frequency: representation frequency in AML patients (n=15); for Number of positive AMLs [rep. frequency]: representation frequency of the source protein (LiTAA) in AML patients (n=15)
[1] = HLA class I ligandome, count for the HLA ligand (LiTAP) or, on protein lines, for the source protein (LiTAA)

| Molecule | Number of positive AMLs (source protein (LiTAA)) | rep. frequency (source protein (LiTAA)) | Number of positive AMLs [1] | Number of positive AMLs [rep. frequency] | representation frequency in FLT3-WT ligandomes (FLT3-WT AML n=7, HLA class I) | representation in FLT3-WT ligandomes (positive/total) (FLT3-WT AML n=7, HLA class I) |
| --- | --- | --- | --- | --- | --- | --- |
| FARSA (protein, UniProt Q9Y285 2-508, looked up) Phenylalanine--tRNA ligase …: ADGQVAELLLRRLEASDGGLDSAELAAELGMEHQAVVGAVKSLQALGEVIEAELRSTKHWELTAEGEEIAREGSHEARVFRSIPPEGLAQSELMRLPSGKVGFSKAMSNKWIRVDKSAADGPRVFRVVDSMEDEVQRRLQLVRGGQAEKLGEKERSELRKRKLLAEVTLKTYWVSKGSAFSTSISKQETELSPEMISSGSWRDRPFKPYNFLAHGVLPDSGHLHPLLKVRSQFRQIFLEMGFTEMPTDNFIESSFWNFDALFQPQQHPARDQHDTFFLRDPAEALQLPMDYVQRVKRTHSQGGYGSQGYKYNWKLDEARKNLLRTHTTSASARALYRLAQKKPFTPVKYFSIDRVFRNETLDATHLAEFHQIEGVVADHGLTLGHLMGVLREFFTKLGITQLRFKPAYNPYTEPSMEVFSYHQGLKKWVEVGNSGVFRPEMLLPMGLPENVSVIAWGLSLERPTMIKYGINNIRELVGHKVNLQMVYDSPLCRLDAEPRPPPTQEAA | 3 | [20.0%] |  |  |  |  |
| CHIC2 (protein, UniProt Q9UKJ5 1-165, looked up) Cysteine-rich hydrophobic …: MADFDEIYEEEEDEERALEEQLLKYSPDPVVVRGSGHVTVFGLSNKFESEFPSSLTGKVAPEEFKASINRVNSCLKKNLPVNVRWLLCGCLCCCCTLGCSMWPVICLSKRTRRSIEKLLEWENNRLYHKLCLHWRLSKRKCETNNMMEYVILIEFLPKTPIFRPD | 3 | [20.0%] |  |  |  |  |
| NGLY1 (protein, UniProt Q96IV0 2-654, looked up) Peptide-N(4)-(N-acetyl-beta-gl …: AAAALGSSSGSASPAVAELCQNTPETFLEASKLLLTYADNILRNPNDEKYRSIRIGNTAFSTRLLPVRGAVECLFEMGFEEGETHLIFPKKASVEQLQKIRDLIAIERSSRLDGSNKSHKVKSSQQPAASTQLPTTPSSNPSGLNQHTRNRQGQSSDPPSASTVAADSAILEVLQSNIQHVLVYENPALQEKALACIPVQELKRKSQEKLSRARKLDKGINISDEDFLLLELLHWFKEEFFHWVNNVLCSKCGGQTRSRDRSLLPSDDELKWGAKEVEDHYCDACQFSNRFPRYNNPEKLLETRCGRCGEWANCFTLCCRAVGFEARYVWDYTDHVWTEVYSPSQQRWLHCDACEDVCDKPLLYEIGWGKKLSYVIAFSKDEVVDVTWRYSCKHEEVIARRTKVKEALLRDTINGLNKQRQLFLSENRRKELLQRIIVELVEFISPKTPKPGELGGRISGSVAWRVARGEMGLQRKETLFIPCENEKISKQLHLCYNIVKDRYVRVSNNNQTISGWENGVWKMESIFRKVETDWHMVYLARKEGSSFAYISWKFECGSVGLKVDSISIRTSSQTFQTGTVEWKLRSDTAQVELTGDNSLHSYADFSGATEVILEAELSRGDGDVAWQHTQLFRQSLNDHEENCLEIIIKFSDL |  |  | 5 | [33.3%] |  |  |
| MUL1: FLT3-WT specific LiTAA (protein, UniProt Q969V5 1-352, looked up) Mitochondrial ubiquitin …: MESGGRPSLCQFILLGTTSVVTAALYSVYRQKARVSQELKGAKKVHLGEDLKSILSEAPGKCVPYAVIEGAVRSVKETLNSQFVENCKGVIQRLTLQEHKMVWNRTTHLWNDCSKIIHQRTNTVPFDLVPHEDGVDVAVRVLKPLDSVDLGLETVYEKFHPSIQSFTDVIGHYISGERPKGIQETEEMLKVGATLTGVGELVLDNNSVRLQPPKQGMQYYLSSQDFDSLLQRQESSVRLWKVLALVFGFATCATLFFILRKQYLQRQERLRLKQMQEEFQEHEAQLLSRAKPEDRESLKSACVVCLSSFKSCVFLECGHVCSCTECYRALPEPKKCPICRQAITRVIPLYNS |  |  | 4 | [26.7%] | 57.1% | 4/7 |
| METTL7A (protein, UniProt Q9H8H3 30-244, looked up) Thiol S-methyltransferase …: WICKKWFPYFLVRFTVIYNEQMASKKRELFSNLQEFAGPSGKLSLLEVGCGTGANFKFYPPGCRVTCIDPNPNFEKFLIKSIAENRHLQFERFVVAAGENMHQVADGSVDVVVCTLVLCSVKNQERILREVCRVLRPGGAFYFMEHVAAECSTWNYFWQQVLDPAWHLLFDGCNLTRESWKALERASFSKLKLQHIQAPLSWELVRPHIYGYAVK | 3 | [20.0%] |  |  |  |  |
| ODF2L (protein, UniProt Q9ULJ1 1-636, looked up) Protein BCAP: MEKAVNDGSHSEELFCHLKTISEKEDLPRCTSESHLSCLKQDILNEKTELEATLKEAELVTHSVELLLPLFKDTIEKINFENANLSALNLKISEQKEILIKELDTFKSVKLALEHLLRKRDYKQTGDNLSSMLLENLTDNESENTNLKKKVFEKEAHIQELSCLFQSEKANTLKANRFSQSVKVVHERLQIQIHKREAENDKLKEYVKSLETKIAKWNLQSRMNKNEAIVMKEASRQKTVALKKASKVYKQRLDHFTGAIEKLTSQIRDQEAKLSETISASNAWKSHYEKIVIEKTELEVQIETMKKQIINLLEDLKKMEDHGKNSCEEILRKVHSIEYENETLNLENTKLKLRFPCRITESKNMNILIVLDMLCYISSEKTTLAALKDEVVSVENELSELQEVEKKQKTLIEMYKTQVQKLQEAAEIVKSRCENLLHKNNQITKTKNKNVEKMRGQMESHLKELERVCDSLTAAERRLHECQESLQCCKGKCADQEHTIRELQGQVDGNHNLLTKLSLEEENCLIQLKCENLQQKLEQMDAENKELEKKLANQEECLKHSNLKFKEKSAEYTALARQLEAALEEGRQKVAEEIEKMSSRESALQIKILDLETELRKKNEEQNQLVCKMNSDPETP | 3 | [20.0%] |  |  |  |  |
| STMN3 (protein, UniProt Q9NZ72 1-180, looked up) Stathmin-3: MASTISAYKEKMKELSVLSLICSCFYTQPHPNTVYQYGDMEVKQLDKRASGQSFEVILKSPSDLSPESPMLSSPPKKKDTSLEELQKRLEAAEERRKTQEAQVLKQLAERREHEREVLHKALEENNNFSRQAEEKLNYKMELSKEIREAHLAALRERLREKELHAAEVRRNKEQREEMSG | 3 | [20.0%] |  |  |  |  |
| UCKL1 (protein, UniProt Q9NWZ5 1-548, looked up) Uridine-cytidine kinase-like 1: MAAPPARADADPSPTSPPTARDTPGRQAEKSETACEDRSNAESLDRLLPPVGTGRSPRKRTTSQCKSEPPLLRTSKRTIYTAGRPPWYNEHGTQSKEAFAIGLGGGSASGKTTVARMIIEALDVPWVVLLSMDSFYKVLTEQQQEQAAHNNFNFDHPDAFDFDLIISTLKKLKQGKSVKVPIYDFTTHSRKKDWKTLYGANVIIFEGIMAFADKTLLELLDMKIFVDTDSDIRLVRRLRRDISERGRDIEGVIKQYNKFVKPSFDQYIQPTMRLADIVVPRGSGNTVAIDLIVQHVHSQLEERELSVRAALASAHQCHPLPRTLSVLKSTPQVRGMHTIIRDKETSRDEFIFYSKRLMRLLIEHALSFLPFQDCVVQTPQGQDYAGKCYAGKQITGVSILRAGETMEPALRAVCKDVRIGTILIQTNQLTGEPELHYLRLPKDISDDHVILMDCTVSTGAAAMMAVRVLLDHDVPEDKIFLLSLLMAEMGVHSVAYAFPRVRIITTAVDKRVNDLFRIIPGIGNFGDRYFGTDAVPDGSDEEEVAYTG | 3 | [20.0%] |  |  |  |  |
| TMBIM4 (protein, UniProt Q9HC24 1-238, looked up) Protein lifeguard 4: MADPDPRYPRSSIEDDFNYGSSVASATVHIRMAFLRKVYSILSLQVLLTTVTSTVFLYFESVRTFVHESPALILLFALGSLGLIFALILNRHKYPLNLYLLFGFTLLEALTVAVVVTFYDVYIILQAFILTTTVFFGLTVYTLQSKKDFSKFGAGLFALLWILCLSGFLKFFFYSEIMELVLAAAGALLFCGFIIYDTHSLMHKLSPEEYVLAAISLYLDIINLFLHLLRFLEAVNKK | 3 | [20.0%] |  |  |  |  |
| RAVER2 (protein, UniProt Q9HCJ3 2-691, looked up) Ribonucleoprotein PTB-binding …: AAAAGDGGGEGGAGLGSAAGLGPGPGLRGQGPSAEAHEGAPDPMPAALHPEEVAARLQRMQRELSNRRKILVKNLPQDSNCQEVHDLLKDYDLKYCYVDRNKRTAFVTLLNGEQAQNAIQMFHQYSFRGKDLIVQLQPTDALLCITNVPISFTSEEFEELVRAYGNIERCFLVYSEVTGHSKGYGFVEYMKKDFAAKARLELLGRQLGASALFAQWMDVNLLASELIHSKCLCIDKLPSDYRDSEELLQIFSSVHKPVFCQLAQDEGSYVGGFAVVEYSTAEQAEEVQQAADGMTIKGSKVQVSFCAPGAPGRSTLAALIAAQRVMHSNQKGLLPEPNPVQIMKSLNNPAMLQVLLQPQLCGRAVKPAVLGTPHSLPHLMNPSISPAFLHLNKAHQSSVMGNTSNLFLQNLSHIPLAQQQLMKFENIHTNNKPGLLGEPPAVVLQTALGIGSVLPLKKELGHHHGEAHKTSSLIPTQTTITAGMGMLPFFPNQHIAGQAGPGHSNTQEKQPATVGMAEGNFSGSQPYLQSFPNLAAGSLLVGHHKQQQSQPKGTEISSGAASKNQTSLLGEPPKEIRLSKNPYLNLASVLPSVCLSSPASKTTLHKTGIASSILDAISQGSESQHALEKCIAYSPPFGDYAQVSSLRNEKRGSSYLISAPEGGSVECVDQHSQGTGAYYMETYLKKKRVY | 3 | [20.0%] |  |  |  |  |
| QTRTD1 (protein, UniProt Q9H974 1-415, looked up) Queuine …: MKLSLTKVVNGCRLGKIKNLGKTGDHTMDIPGCLLYTKTGSAPHLTHHTLHNIHGVPAMAQLTLSSLAEHHEVLTEYKEGVGKFIGMPESLLYCSLHDPVSPCPAGYVTNKSVSVWSVAGRVEMTVSKFMAIQKALQPDWFQCLSDGEVSCKEATSIKRVRKSVDRSLLFLDNCLRLQEESEVLQKSVIIGVIEGGDVMEERLRSARETAKRPVGGFLLDGFQGNPTTLEARLRLLSSVTAELPEDKPRLISGVSRPDEVLECIERGVDLFESFFPYQVTERGCALTFSFDYQPNPEETLLQQNGTQEEIKCMDQIKKIETTGCNQEITSFEINLKEKKYQEDFNPLVRGCSCYCCKNHTRAYIHHLLVTNELLAGVLLMMHNFEHYFGFFHYIREALKSDKLAQLKELIHRQAS | 3 | [20.0%] |  |  |  |  |
